Data reported in US20210069120A1, “COMPOSITE NANOPARTICLE, PREPARATION METHOD THEREOF AND PREPARATION METHOD OF COMPOSITE NANO PREPARATION USING THEREOF” (JINAN UNIVERSITY, priority 2018, published 2021).

Tested on: MDA-MB-231 cells
Assay: MTT proliferation inhibition / toxicity on MDA-MB-231
Format: cell-based
Conditions: Homo sapiens, 48 hours
Protocol: 4×10^3 MDA-MB-231 cells/well were inoculated into a 96-well plate with a concentration of 100 μL/well, and cultured in a 5% CO2 cell incubator at 37° C. for 24 hours, then a supernatant was removed after 24 hours, and 200 μL of drug-containing medium was added. The final concentrations of the PTX added to the MDA-MB-231 cells were 0.0039 μmol/L, 0.0078 μmol/L, 0.0156 μmol/L, 0.03125 μmol/L, 0.0625 μmol/L, 0.125 μmol/L, 0.25 μmol/L, 0.5 μmol/L and 1 μmol/L. At the same time, a control group (the same amount of culture fluid was added) and a blank zeroing group were set up. Each well was provided with 6 multiple wells and placed in a CO2 incubator for continuous cultivation for 48 hours. […] An OD value was measured at 570 nm of an enzyme reader. […]
(§1) 4×10^3 MDA-MB-231 cells/well were inoculated into a 96-well plate with a concentration of 100 μL/well, and cultured in a 5% CO2 cell incubator at 37° C. for 24 hours, then a supernatant was removed after 24 hours, and 200 μL of drug-containing medium was added. […] An OD value was measured at 570 nm of an enzyme reader. […]
as §1

CC(=O)O[C@H]1C(=O)[C@@]2(C)[C@H]([C@H](OC(=O)c3ccccc3)[C@]3(O)C[C@H](OC(=O)[C@H](O)[C@@H](NC(=O)c4ccccc4)c4ccccc4)C(C)=C1C3(C)C)[C@]1(OC(C)=O)CO[C@@H]1C[C@@H]2O [PTX, paclitaxel]
IC50: 1.02 µM
